The values below come from article PMC10163693.

The chains behind the UniProt entries cited, without tags or fusion partners.
UniProt P46937: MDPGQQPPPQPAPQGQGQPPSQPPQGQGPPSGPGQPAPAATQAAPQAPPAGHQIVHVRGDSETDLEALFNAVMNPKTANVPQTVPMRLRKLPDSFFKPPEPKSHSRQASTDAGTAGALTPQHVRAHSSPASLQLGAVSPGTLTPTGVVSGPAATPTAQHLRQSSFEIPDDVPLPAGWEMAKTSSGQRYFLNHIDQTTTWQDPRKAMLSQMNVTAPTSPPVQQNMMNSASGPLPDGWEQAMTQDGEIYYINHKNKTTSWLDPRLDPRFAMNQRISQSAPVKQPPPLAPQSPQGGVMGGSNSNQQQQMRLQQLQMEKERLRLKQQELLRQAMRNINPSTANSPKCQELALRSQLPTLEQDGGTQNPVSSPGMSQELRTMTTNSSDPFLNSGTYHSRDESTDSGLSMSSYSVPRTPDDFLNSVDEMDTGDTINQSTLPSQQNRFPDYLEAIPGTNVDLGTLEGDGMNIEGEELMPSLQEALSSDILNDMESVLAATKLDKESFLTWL

The test addresses FLAG-YAP1 (UniProt P46937). The test can be described thus: co-IP; cells transfected with Myc-NF1 fragments and FLAG-YAP1; lysates on anti-FLAG affinity beads overnight at 4 °C with 1 mg/ml BSA; washed with 50 mM Tris pH 8.0, 150 mM NaCl, 0.1% Triton, 5 mM EDTA; western blot. (Immunoblotting shows a protein as a band on a membrane.)

No constants are given. Whether binding was seen depends on the method and setting. Binding seen in cells or lysates may run through a third protein. Some results given as binding are weak or reduced against the parent protein; the word gives no strength. Sequences can lack the tags named with a protein.

B1: Myc-NF1^2560-2818 (domain or fragment, UniProt P21359-2 2560-2818)
chain: TQRISSSQQHPHLRKVSVSESNVLLDEEVLTDPKIQALLLTVLATLVKYTTDEFDQRILYEYLAEASVVFPKVFPVVHNLLDSKINTLLSLCQDPNLLNPIHGIVQSVVYHEESPPQYQTSYLQSFGFNGLWRFAGPFSKQTQIPDYAELIVKFLDALIDTYLPGIDEETSEESLLTPTSPYPPALQSQLSITANLNLSNSMTSLATSQHSPGIDKENVELSPTTGHCNSGRTRHGSASQVQKQRSAGSFKRNSIKKIV
As to B1, the binding result is listed as “binds”.

B2: Myc-NF1^AAAA (alanine substitution of the PPQY motif in NF1^2560-2818) (domain or fragment, UniProt P21359-2 2560-2818)
chain: TQRISSSQQHPHLRKVSVSESNVLLDEEVLTDPKIQALLLTVLATLVKYTTDEFDQRILYEYLAEASVVFPKVFPVVHNLLDSKINTLLSLCQDPNLLNPIHGIVQSVVYHEESAAAAQTSYLQSFGFNGLWRFAGPFSKQTQIPDYAELIVKFLDALIDTYLPGIDEETSEESLLTPTSPYPPALQSQLSITANLNLSNSMTSLATSQHSPGIDKENVELSPTTGHCNSGRTRHGSASQVQKQRSAGSFKRNSIKKIV
With B2, the binding result was “no binding”.
